Changes are numbered by the printed parent chain. Results are given in words; binding and its absence hold for the method and conditions named. Some results given as binding are weak or reduced against the parent protein; the word gives no strength. One block for each binder: values may come before it.
Columns and labels:
[1] = target: T1, …; experiment: phage-display sorting of C-terminal peptide Library 2 with the clamp, enriched clones sequenced [cont'd]
T1 sequence (peptide): PRGSIDSWV

[2] = target: T2, …; experiment: as above; remark: listed apart in the source
T2 sequence (peptide): KRMPLDSWV

[3] = target: T3, …; experiment: as above; remark: listed apart in the source
T3 sequence (peptide): PRMPIDSWV

[4] = target: T4, …; experiment: as above; remark: listed apart in the source
T4 sequence (peptide): KRGAIDSWV

[5] = target: T5, …; experiment: as above; remark: listed apart in the source
T5 sequence (peptide): KRGPIDSWV

[6] = target: T6, …; experiment: as above; remark: listed apart in the source
T6 sequence (peptide): KRMPIDSWV

[7] = target: T7, …; experiment: as above; remark: listed apart in the source
T7 sequence (peptide): DRMPFDSWV

[8] = target: T8, …; experiment: as above; remark: listed apart in the source
T8 sequence (peptide): ERGSIDSWV

[9] = target: T9, …; experiment: as above; remark: listed apart in the source
T9 sequence (peptide): KRGSIDSWV

[10] = target: T10, …; experiment: as above; remark: listed apart in the source
T10 sequence (peptide): ERGAIDSWV

[11] = target: T11, …; experiment: as above; remark: listed apart in the source
T11 sequence (peptide): PRGELDSWV

GPMDTWV = target: T12, GPMDTWV; experiment: phage-display sorting of C-terminal peptide Library 1 with the clamp, enriched clones sequenced
T12 sequence (peptide): GPMDTWV

GPIDTWV = target: T13, GPIDTWV; experiment: as above
T13 sequence (peptide): GPIDTWV

GPLDTWV = target: T14, GPLDTWV; experiment: as above
T14 sequence (peptide): GPLDTWV

GEIDTWV = target: T15, GEIDTWV; experiment: as above
T15 sequence (peptide): GEIDTWV

[12] = target: T16, …; experiment: phage-display sorting of C-terminal peptide Library 2 with the clamp, enriched clones sequenced [cont'd]; remark: listed apart in the source
T16 sequence (peptide): KRGSMDSWV

[13] = target: T17, …; experiment: as above; remark: listed apart in the source
T17 sequence (peptide): VRGEIDSWV

[14] = target: T18, …; experiment: as above; remark: listed apart in the source
T18 sequence (peptide): KRSNIDSWV

[15] = target: T19, …; experiment: as above; remark: listed apart in the source
T19 sequence (peptide): RRGSIDSWV

[16] = target: T20, …; experiment: as above; remark: listed apart in the source
T20 sequence (peptide): KRFEIDSWV

[17] = target: T21, …; experiment: as above; remark: listed apart in the source
T21 sequence (peptide): NRGRMDSWV

[18] = target: T22, …; experiment: as above; remark: listed apart in the source
T22 sequence (peptide): KRGQIDSWV

[19] = target: T23, …; experiment: as above; remark: listed apart in the source
T23 sequence (peptide): SRGAIDSWV

[20] = target: T24, …; experiment: as above; remark: listed apart in the source
T24 sequence (peptide): KRFNIDSWV

[21] = target: T25, …; experiment: as above; remark: listed apart in the source
T25 sequence (peptide): DRGSMDSWV

[22] = target: T26, …; experiment: as above; remark: listed apart in the source
T26 sequence (peptide): FRGEIDSWV

[23] = target: T27, …; experiment: as above; remark: listed apart in the source
T27 sequence (peptide): ERFSIDSWV

[24] = target: T28, …; experiment: as above; remark: listed apart in the source
T28 sequence (peptide): VRGSIDSWV

[25] = target: T29, …; experiment: as above; remark: listed apart in the source
T29 sequence (peptide): ARGSIDSWV

GSIDTWV = target: T30, GSIDTWV; experiment: phage-display sorting of C-terminal peptide Library 1 with the clamp, enriched clones sequenced
T30 sequence (peptide): GSIDTWV

SPIDTWV = target: T31, SPIDTWV; experiment: as above
T31 sequence (peptide): SPIDTWV

binding [1]: binds
binding [2]: binds
binding [3]: binds
binding [4]: binds
binding [5]: binds
binding [6]: binds
binding [7]: binds
binding [8]: binds
binding [9]: binds
binding [10]: binds
binding [11]: binds
binding (GPMDTWV): binds
binding (GPIDTWV): binds
binding (GPLDTWV): binds
binding (GEIDTWV): binds
B1: enhanced PDZ-b (designed binder)
chain: MKHHHHHHHHHHSSDYKDDDDKGENLYFQGSPELGFSISGGVGGRGNPFRPDDDGIFVTRVQPEGPASKLLQPGDKIIQANGYSFINIEHGQAVSLLKTFQNTVELIIVREVGNGAKQEIRVRVEKDGGSGGVSSVPTNLEVVAATPTSLLISWDAYYDSHVSYYRITYGETGGNSPVQEFTVPGSKSTATISGLKPGVDYTITVYAHYNYHYYSSPISINYRT

binding [12]: binds
binding [13]: binds
binding [14]: binds
binding [15]: binds
binding [16]: binds
binding [17]: binds
binding [18]: binds
binding [19]: binds
binding [20]: binds
binding [21]: binds
binding [22]: binds
binding [23]: binds
binding [24]: binds
binding [25]: binds
binding [9]: binds
binding (GSIDTWV): binds
binding (GPIDTWV): binds
binding (SPIDTWV): binds
binding (GPLDTWV): binds
B2: ePDZ-b1 (designed binder)
chain: B1 chain with Y158R, D159E, S160L, H161P

From patent US20110143963A1
